Reference: PubChem BioAssay AID652259 (Drosophila RNAi Screening Center, 2013)
In all, the deposit lists about 22,000 reagents; below is a random part of those with a known target gene and a result. Of all reagents, 233 (1.1%) are marked active. 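Light values are raw, unnormalised plate reads; the ratio scores behind the reporter calls were not deposited.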 Unmarked entries are inactive. A plus sign joins genes that one reagent is predicted to hit. Not given: the amount of reagent, the time to read-out, the dose of the treatment.

Assay: 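Identify new Wingless signalling regulators in fly cells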 (primary screen)
System: Drosophila clone 8 imaginal disc epithelial cells
Knock-down reagent: long dsRNA against Drosophila genes
Treatment: pathway stimulated by co-transfected Wingless expression plasmid
Read-out: 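Firefly luciferase from a tcf-site Wingless reporter, measured alongside co-transfected Renilla luciferase that tracks transfection; pathway stimulated by a Wingless plasmid; the firefly-to-Renilla ratio is not deposited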
Direction: firefly reporter light: higher = more Wg reporter light, before normalisation; Renilla control light: higher = more transfected or surviving cells
Rule for the call: 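a knock-down is a candidate when at least two out of four statistical tests show it departing from its plate mean; one test alone signals a weak candidate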
Meaning of the calls: active = candidate regulator (raises or lowers reporter); inactive = not a candidate

predicted target | PubChem SID | firefly reporter light, replicate 1 | firefly reporter light, replicate 2 | Renilla control light, replicate 1 | Renilla control light, replicate 2
Rpn13R (Regulatory particle non-ATPase 13-related) | SID104198196 | 21555 | – | 8182 | –
CG11050 | SID104181917 | 14417 | – | 3157 | –
CNMa (CNMamide) | SID104188197 | 11170 | – | 3139 | –
CG40298 | SID104201794 | 5.59e5 | 5.55e5 | 2.24e5 | 2.06e5
AttD (Attacin-D) | SID104196064 | 2344 | – | 852 | –
Tie (Tie-like receptor tyrosine kinase) | SID104187896 | 3020 | – | 1347 | –
Tie (Tie-like receptor tyrosine kinase) | SID104188494 | 1859 | 6841 | 997 | 3120
Rdh1 (Retinol dehydrogenase 1) | SID104186604 | 8396 | – | 2368 | –
CG1971 | SID104195198 | 1744 | 3622 | 624 | 1216
CG9119 | SID104188412 | 16521 | – | 5771 | –
Pfk (Phosphofructokinase) | SID104187298 | 6843 | – | 2741 | –

No new results follow: 5 of the entries above.
predicted target | PubChem SID | firefly reporter light, replicate 1 | firefly reporter light, replicate 2 | Renilla control light, replicate 1 | Renilla control light, replicate 2
AttD (Attacin-D) | SID104196064 | 2344 | – | 852 | –
Tie (Tie-like receptor tyrosine kinase) | SID104187896 | 3020 | – | 1347 | –
Tie (Tie-like receptor tyrosine kinase) | SID104188494 | 1859 | 6841 | 997 | 3120
Rdh1 (Retinol dehydrogenase 1) | SID104186604 | 8396 | – | 2368 | –
CG1971 | SID104195198 | 1744 | 3622 | 624 | 1216

Additional records follow:
predicted target | PubChem SID | firefly reporter light, replicate 1 | firefly reporter light, replicate 2 | Renilla control light, replicate 1 | Renilla control light, replicate 2
CG32700 | SID104197649 | 19968 | – | 9053 | –
CG32700 | SID104197650 | 12884 | – | 6448 | –
hpo (hippo) | SID104185857 | 13339 | – | 3932 | –
DIP-delta (Dpr-interacting protein delta) | SID104190006 | 899 | 7344 | 1027 | 3704
DIP-delta (Dpr-interacting protein delta) | SID104190242 | 1432 | 13872 | 1104 | 4457
CG13842 | SID104194484 | 19028 | – | 14585 | –
CG43386 | SID104197772 | 18928 | – | 8928 | –
CG30192 | SID104183769 | 16516 | – | 7721 | –
Dus1 (Dihydrouridine synthase 1) | SID104180415 | 1564 | 6448 | 588 | 2472
AdamTS-B (ADAM metallopeptidase with thrombospondin type 1 motif B) | SID104197194 | 2650 | – | 818 | –
AdamTS-B (ADAM metallopeptidase with thrombospondin type 1 motif B) | SID104198138 | 23627 | – | 11113 | –
CG13084 | SID104181980 | 2474 | 4960 | 674 | 1558
CG13133 | SID104182022 | 1943 | 9916 | 1184 | 4342
CG6652 | SID104190478 | 3700 | – | 1328 | –
CG43068 | SID104185330 | 16834 | – | 13724 | –
Mvk + CG33672 + spt4 | SID104185148 | 19280 | – | 16048 | –
Mvk + CG33672 + spt4 | SID104186420 | 7805 | – | 2290 | –
CG16995 | SID104180272 | 2688 | 5932 | 1034 | 2227
